Data published in patent publication EP2886535A1, “Novel veterinary isometamidium compositions and similar substances and uses thereof” (Ceva Sante Animale, priority 2013, dated 2015).
At least one structure is not confirmed: it was looked up by name or label, or the drawing left a doubt.

System: T. congolense
Test: In vivo curative and preventive activity in infected and monthly re-infected mice
Parameters: species or system souris femelles swiss (CD1)
Conditions: for protection des souris d'une infection (durée): dose 0,1 mg/kg; for activité curative et préventive (durée): dose 1 mg/kg
Description: La souche T. congolense est cultivée et les différents composés sont préparés selon les protocoles de culture et de préparation décrits pour les tests in vitro (Exemples 1 et 2).
Des parasites de la souche de T. congolense ont été initialement propagés dans des souris femelles swiss (CD1) âgées de 8 semaines (200 mg/kg). Ces souris sont ensuite infectés par voie intrapéritonéale avec 10^5 trypanosomes de souche T. congolense dans un volume final de 200 µl de tampon phosphate glucose (137 mM NaCl, 10 mM phosphate, […], pH 7,4, 1% glucose). Les souris sont alors traitées par les composés à tester 24 heures après l'infection (5 souris traités par composé à tester + un groupe témoin). Chaque composé testé est injecté par voie intrapéritonéale et à des concentrations de 1 et 0,1 mg/kg de poids corporel dans un volume final de 100 µl d'eau stérile. Les souris témoins non traitées reçoivent 100 µl d'eau stérile après infection. La parasitémie a été évaluée 2 fois par semaine au microscope à partir d'échantillons de sang prélevés sur la veine caudale. Afin d'évaluer la persistance des composés, les souris qui étaient parasite-négatives après un mois ont été ré-infectées avec 10^5 trypanosomes. La réinfection a été répétée après le deuxième et troisième mois à partir de l'infection initiale et du traitement si les souris infectées étaient toujours aparasitémiques (sans parasites dans le sang). La réinfection a été réalisée avec des parasites provenant de souris témoins infectées de manière chronique pour éviter une réponse immunitaire immédiate due à la présence d'anticorps homologues anti-VSG. Deux souris non-traitées (Témoin) ont été infectées à chaque infection et réinfection. Le traitement a été considéré inefficace quand plus de 2 souris sur 5 dans un groupe étaient parasite-positives.

SMILES	protection des souris d'une infection (durée)	activité curative et préventive (durée)
CC[n+]1c(-c2ccccc2)c2cc(N/N=N/c3cccc(C(=N)N)c3)ccc2c2ccc(N)cc21 [Isométamidium pur, 8-(3-m-amidinophényl-2-triazeno)-3-amino-5-éthyl-6-phénylphénanthridinium]	pendant trois mois successifs	pendant au moins trois mois
CC[n+]1c(-c2ccccc2)c2cc(N)ccc2c2ccc(N=NNc3cccc(C(=N)N)c3)cc21 [Isomère rouge, 3-(3-m-amidinophényl-2-triazeno)-8-amino-5-éthyl-6-phénylphénanthridinium, reference compound]	ne sont actifs que pendant un mois	nulle pour l'isomère rouge au bout de trois mois
